Measurements reported in PubChem BioAssay AID652272 (Drosophila RNAi Screening Center, 2013)

Screen: 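Finding fly genes that regulate Hedgehog signal transduction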 (primary screen)
System: Drosophila clone 8 (Cl8) cells
Reagents: long dsRNA against Drosophila genes
Read-out: 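Plate reader light from a firefly reporter under a ptc promoter fragment that responds to Hedgehog, with Renilla light as transfection reference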
Reading the numbers: firefly Hh reporter signal: higher = more ptc reporter light; Renilla reference signal: higher = more Renilla control light
Hit rule: 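Hit when the z-score averaged over two replicates is under -2 or over +3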
Calls: active = hit: reporter lowered or raised; inactive = not a hit
The screen tested about 21,000 reagents; below is a random part of those with a known target gene and a result. Of all reagents, 503 (2.4%) got an active call. 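Raw plate light values, not normalised; calls rest on replicate z-scores that were not deposited; hits include reporter decreases as well as increases.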 No sequences are given here. The record does not give: the amount of reagent, the time to read-out.

CG18449 [DRSC06754] | firefly Hh reporter signal, replicate 1 = 71601; firefly Hh reporter signal, replicate 2 = 62050; Renilla reference signal, replicate 1 = 1773; Renilla reference signal, replicate 2 = 5352; activity call = inactive
CG31087 [DRSC14253] | firefly Hh reporter signal, replicate 1 = 4.87e5; firefly Hh reporter signal, replicate 2 = 84262; Renilla reference signal, replicate 1 = 28579; Renilla reference signal, replicate 2 = 933; activity call = inactive
Las [DRSC11772] | firefly Hh reporter signal, replicate 1 = 93876; firefly Hh reporter signal, replicate 2 = 87707; Renilla reference signal, replicate 1 = 3683; Renilla reference signal, replicate 2 = 3290; activity call = inactive
sens-2 [DRSC02136] | firefly Hh reporter signal, replicate 1 = 1.43e5; firefly Hh reporter signal, replicate 2 = 71361; Renilla reference signal, replicate 1 = 3594; Renilla reference signal, replicate 2 = 7488; activity call = inactive
sens-2 [DRSC02613] | firefly Hh reporter signal, replicate 1 = 1.33e5; firefly Hh reporter signal, replicate 2 = 67030; Renilla reference signal, replicate 1 = 3510; Renilla reference signal, replicate 2 = 5712; activity call = inactive

Just “firefly Hh reporter signal, replicate 1” (2 entries from above):
Las [DRSC11772] = 93876
sens-2 [DRSC02136] = 1.43e5

The results go on:
CG5861 [DRSC02907] | firefly Hh reporter signal, replicate 1 = 1.37e5; firefly Hh reporter signal, replicate 2 = 43384; Renilla reference signal, replicate 1 = 4000; Renilla reference signal, replicate 2 = 2011; activity call = inactive
CG14020 [DRSC02350] | firefly Hh reporter signal, replicate 1 = 71697; firefly Hh reporter signal, replicate 2 = 67008; Renilla reference signal, replicate 1 = 1200; Renilla reference signal, replicate 2 = 6908; activity call = inactive
RpS28a [DRSC15064] | firefly Hh reporter signal, replicate 1 = 1.29e5; firefly Hh reporter signal, replicate 2 = 1.07e5; Renilla reference signal, replicate 1 = 5049; Renilla reference signal, replicate 2 = 3879; activity call = inactive
cact [DRSC03501] | firefly Hh reporter signal, replicate 1 = 86752; firefly Hh reporter signal, replicate 2 = 51932; Renilla reference signal, replicate 1 = 5061; Renilla reference signal, replicate 2 = 2604; activity call = inactive
Cpr64Ac [DRSC08462] | firefly Hh reporter signal, replicate 1 = 79140; firefly Hh reporter signal, replicate 2 = 53543; Renilla reference signal, replicate 1 = 2228; Renilla reference signal, replicate 2 = 3955; activity call = inactive
CG43293 [DRSC08797] | firefly Hh reporter signal, replicate 1 = 1.24e5; firefly Hh reporter signal, replicate 2 = 2.11e5; Renilla reference signal, replicate 1 = 2912; Renilla reference signal, replicate 2 = 7488; activity call = inactive
Corin [DRSC06818] | firefly Hh reporter signal, replicate 1 = 1.61e5; firefly Hh reporter signal, replicate 2 = 77417; Renilla reference signal, replicate 1 = 3830; Renilla reference signal, replicate 2 = 5638; activity call = inactive
Ccs [DRSC06692] | firefly Hh reporter signal, replicate 1 = 86176; firefly Hh reporter signal, replicate 2 = 62592; Renilla reference signal, replicate 1 = 2267; Renilla reference signal, replicate 2 = 4771; activity call = inactive
CG11170 [DRSC04090] | firefly Hh reporter signal, replicate 1 = 65217; firefly Hh reporter signal, replicate 2 = 75063; Renilla reference signal, replicate 1 = 2803; Renilla reference signal, replicate 2 = 2851; activity call = inactive
